Measured values from patent publication US20250320282A1 (MABYLON, published 2025).
Numbering of substitutions follows the chain as printed. Results are given in words; binding and its absence hold for the method and conditions named. Some results given as binding are weak or reduced against the parent protein; the word gives no strength. Sequences can lack the tags named with a protein.

T1: Ara h 2 (Arachis hypogaea allergen 2) (Arachis hypogaea, UniProt Q6PSU2 22-172)
T1 construct: Peanut allergen; also called nAra h 2; natural Ara h 2
T1 sequence: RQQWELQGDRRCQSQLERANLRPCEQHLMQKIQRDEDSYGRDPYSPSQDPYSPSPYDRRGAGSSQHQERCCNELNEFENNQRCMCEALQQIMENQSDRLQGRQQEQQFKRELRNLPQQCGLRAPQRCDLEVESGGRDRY

B1: MY006-7G6 Fab Hg Lg (Fab, V domains shown)
VH: QVQLVESGGGVVQPGRSLRLSCAASGIAFNDYTMHWVRRAPGKGLEWVAAISYGGTNKYYADSVKGRFTISRDSSKNTLYLQMNSLRAEDTAVYYCARDSGYRSLLHWGQGTLVTVSS
VL: EIVLTQSPLSLPVTPGEPASISCRSSQSLVHRNGYNYLDWYLQKPGQSPQLLIYMASKRASGVPDRFSGSGSGTDFTLKISRVEAEDVGVYYCMQALQTWTFGQGTKVEIK
notes: Germlined variant, IgG1-Fab format
B2: MY006-7G6 Fab Hf (Fab, V domains shown)
VH: B1 VH with R39Q, S74N
VL: B1 VL with D75E, V90I, I110V, K111N
notes: Germlined variant, IgG1-Fab format; also called 7G6 Hf
B3: MY006-7G6 Fab Hf Lf (Fab, V domains shown)
VH: B1 VH with R39Q, S74N
VL: B1 VL with E1D, L4M
notes: as for B1
B4: MY006-7G6 Fab Hf Lg (Fab, V domains shown)
VH: B1 VH with R39Q, S74N
VL: B1 VL
notes: Germlined variant, IgG1-Fab format; also called 7G6: Hf/Lg
B5: MY006-7G6 Fab Hg (Fab, V domains shown)
VH: B1 VH
VL: B1 VL with D75E, V90I, I110V, K111N
notes: Germlined variant, IgG1-Fab format; also called 7G6 Hg
B6: MY006-7G6 Fab Hg Lf (Fab, V domains shown)
VH: B1 VH
VL: B1 VL with E1D, L4M
notes: as for B1
B7: MY006-7G6 Fab Lf (Fab, V domains shown)
VH: B1 VH with A40S, G42D, Y80F, N84D, A88V
VL: B1 VL with E1D, L4M
notes: Germlined variant, IgG1-Fab format; also called 7G6 Lf
B8: MY006-7G6 Fab Lg (Fab, V domains shown)
VH: B1 VH with A40S, G42D, Y80F, N84D, A88V
VL: B1 VL
notes: Germlined variant, IgG1-Fab format; also called 7G6 Lg
B9: MY006-2F8 Fab Hg (Fab, V domains shown)
VH: EVQLVESGGGLVQPGGSLRLSCAASGFIFSDYNMNWVRQAPGKGLEWVSSITRSSRTIYYADSVKGRFTISRDNAKNSLYLQMNSLRDEDTAVYYCAREDFDVSTGPYYMDVWGKGTTVTVSS
VL: EIVLTQSPGTLSLSPGERATLSCRASQSVSNMFLVWYQQKPGQAPRLLMYGASTRATDIPDRFSGSGSGTDFTLTISRLEPEDFAVYYCQQNGNSPYTFGQGTKLEIK
notes: Germlined variant, IgG1-Fab format; also called 2F8 Hg
B10: MY006-2F8 Fab Hg Lg (Fab, V domains shown)
VH: B9 VH
VL: B9 VL with D58G
notes: as for B1
B11: MY006-2F8 Fab Lf (Fab, V domains shown)
VH: B9 VH with Q13K, Y80H, E89A, K115N, T120I
VL: B9 VL with M49I, D58G
notes: Germlined variant, IgG1-Fab format; also called 2F8 Lf
B12: MY006-15E3 Fab Hg Lg (Fab, V domains shown)
VH: EVQLVESGGGLVQPGGSLRLSCAASGFKFSTFYMTWIRQAPGKGLEWVANIKQDGSEKDYLDSVRGRFTISRDNAKSSLYLQMNSLRAEDTAVYYCTRNGLQDSYSGDFFDHWGQGTLVTVSS
VL: QSVLTQPPSVSAAPGQKVTISCSGTGSNIGHNYVSWYQQLPGTAPKLLIFDNTKRPSGIPDRFSGSKSGSSATLGITGLQTGDEADYFCATWDADLSAVLFGGGTKLTVL
notes: as for B1
B13: MY006-15E3 Fab Hf (Fab, V domains shown)
VH: B12 VH with I37V, S77N
VL: B12 VL with V10I, G42R, K46R, D86H
notes: Germlined variant, IgG1-Fab format; also called 15E3 Hf
B14: MY006-15E3 Fab Hf Lf (Fab, V domains shown)
VH: B12 VH with I37V, S77N
VL: B12 VL with F50Y, S70T, F88Y
notes: as for B1
B15: MY006-15E3 Fab Hf Lg (Fab, V domains shown)
VH: B12 VH with I37V, S77N
VL: B12 VL
notes: Germlined variant, IgG1-Fab format; also called 15E3: Hf/Lg
B16: MY006-15E3 Fab Hg (Fab, V domains shown)
VH: B12 VH
VL: B12 VL with V10I, G42R, K46R, D86H
notes: Germlined variant, IgG1-Fab format; also called 15E3 Hg
B17: MY006-15E3 Fab Hg Lf (Fab, V domains shown)
VH: B12 VH
VL: B12 VL with F50Y, S70T, F88Y
notes: as for B1
B18: MY006-15E3 Fab Lf (Fab, V domains shown)
VH: B12 VH with G10A, T69N, S78V, S85T, R87S, E89D, A92G, T117I
VL: B12 VL with F50Y, S70T, F88Y
notes: Germlined variant, IgG1-Fab format; also called 15E3 Lf
B19: MY006-15E3 Fab Lg (Fab, V domains shown)
VH: B12 VH with G10A, T69N, S78V, S85T, R87S, E89D, A92G, T117I
VL: B12 VL
notes: Germlined variant, IgG1-Fab format; also called 15E3 Lg
B20: MY006-17H9 Fab Hg (Fab, V domains shown)
VH: QVQLVESGGGVVQPGRSLRLSCAASGSTLGTYGMHWVRQAPGKGLEWVAIISPDGGHQDYADPVRGRFTVSRDNSKNTLYLQMNSLRAEDTAVYYCATTLCARTDCTWVRSDSWGQGTLVTVSS
VL: ANVLTQSPGTLSLSPGERATLSCRASQRVSGDYLAWYQQKRGQAPRLLIYGASSRATGIPDRFSGSGSGTDFTLTISRLEPEDFAVYYCQHYNGPPVTFGQGTKLEIK
B21: MY006-17H9 Fab Hf (Fab, V domains shown)
VH: B20 VH with V70I
VL: B20 VL
B22: MY006-17H9 Fab Lg (Fab, V domains shown)
VH: B20 VH with V5E, S7Y, A23V, N84D, S85N, A88V
VL: B20 VL with R41P
B23: MY006-17H9 Fab Lf (Fab, V domains shown)
VH: B20 VH with V5E, S7Y, A23V, N84D, S85N, A88V
VL: B20 VL with A1E, N2I, R41P
B24: MY006-17H9 Fab Hg Lg (Fab, V domains shown)
VH: B20 VH
VL: B20 VL with R41P
B25: MY006-17H9 Fab Hg Lf (Fab, V domains shown)
VH: B20 VH
VL: B20 VL with A1E, N2I, R41P
B26: MY006-17H9 Fab Hf Lg (Fab, V domains shown)
VH: B20 VH with V70I
VL: B20 VL with R41P
B27: MY006-17H9 Fab Hf Lf (Fab, V domains shown)
VH: B20 VH with V70I
VL: B20 VL with A1E, N2I, R41P
B28: MY006-17H9 Fab Hg_LgA1E (Fab, V domains shown)
VH: B20 VH
VL: B20 VL with A1E, R41P
B29: MY006-17H9 Fab Hg_LgN2I (Fab, V domains shown)
VH: B20 VH
VL: B20 VL with N2I, R41P
B30: MY006-17H9 Fab Hf_LgA1E (Fab, V domains shown)
VH: B20 VH with V70I
VL: B20 VL with A1E, R41P
B31: MY006-17H9 Fab Hf_LgN2I (Fab, V domains shown)
VH: B20 VH with V70I
VL: B20 VL with N2I, R41P
B32: MY006-2F8 Fab Lg (Fab, V domains shown)
VH: B9 VH with Q13K, Y80H, E89A, K115N, T120I
VL: B9 VL with D58G
notes: Germlined variant, IgG1-Fab format; also called 2F8 Lg
B33: MY006-2F8 Fab Hg Lf (Fab, V domains shown)
VH: B9 VH
VL: B9 VL with M49I, D58G
notes: Germlined variant, IgG1-Fab format; also called 2F8: Hg/Lf
B34: 7G6_G1 (Fc fusion, not shown: a dimerising Fc or GST; small tags and cut ends)
scFv: EIVLTQSPATLSLSPGERATLSCRSSQSLVHRNGYNYLDWYQQKPGQAPRLLIYMASKRASGVPARFSGSGSGTDFTLTISSLEPEDSALYYCMQALQTWTFGGGTKLEIKGGGGSGGGGSGGGGSGGGGSEVQLVETGGGLVQPGGSLRLSCAASGFAFNDYTMHWVRQAPGKGLEWVSAISYGGTNKYYADSVKGRFTISRDNSKDTLYLHMNSLRAEDTAVYYCARDSGYRSLLHWGQGTLVTVSS
B35: 7G6_G2 (Fc fusion, not shown: a dimerising Fc or GST; small tags and cut ends)
scFv: EIVLTQSPLSLPVTLGQPASISCRSSQSLVHRNGYNYLDWFHQRPGQSPRRLIYMASKRASGVPDRFSGSGSGTDFTLKISRVDAEDVGVYYCMQALQTWTFGQGTKLTVLGGGGSGGGGSGGGGSGGGGSEVQLVETGGGLVQPGGSLRLSCAASGFAFNDYTMHWVRQAPGKGLEWVSAISYGGTNKYYADSVKGRFTISRDNSKDTLYLHMNSLRAEDTAVYYCARDSGYRSLLHWGQGTLVTVSS
B36: 7G6_G4 (Fc fusion, not shown: a dimerising Fc or GST; small tags and cut ends)
scFv: EIVLTQSPLSLPVTLGQPASISCRSSQSLVHRNGYNYLDWFHQRPGQSPRRLIYMASKRASGVPDRFSGSGSGTDFTLKISRVDAEDVGVYYCMQALQTWTFGQGTKLTVLGGGGSGGGGSGGGGSGGGGSQVQLVQSGGGLVQPGGSLRLSCAASGFAFNDYTMHWVRQAPGKGLEWVSAISYGGTNKYYADSVKGRFTISRDNGKKSLYLQMNSLIPEDTALYYCAKDSGYRSLLHWGQGTTVTVSS

Target: T1, Ara h 2 (Arachis hypogaea allergen 2)
Assay: ELISA, Fab titration on coated Ara h 2

Row | Binder | binding
1 | B1 | binds
2 | B2 | binds
3 | B3 | binds
4 | B4 | binds
5 | B5 | binds
6 | B6 | binds
7 | B7 | binds
8 | B8 | binds
9 | B9 | binds
10 | B10 | binds
11 | B11 | binds
12 | B12 | binds
13 | B13 | binds
14 | B14 | binds
15 | B15 | binds
16 | B16 | binds
17 | B17 | binds

Row | Binder | binding
18 | B18 | binds
19 | B19 | binds
20 | B20 | binds
21 | B21 | binds
22 | B22 | binds
23 | B23 | binds
24 | B24 | binds
25 | B25 | binds
26 | B26 | binds
27 | B27 | binds
28 | B28 | binds
29 | B29 | binds
30 | B30 | binds
31 | B31 | binds
32 | B32 | binds
33 | B33 | binds

Target: T1, Ara h 2 (Arachis hypogaea allergen 2)
Assay: ELISA on Ara h2, scFv-Fc

Row | Binder | binding
34 | B34 | binds
35 | B35 | binds
36 | B36 | binds

Target: T1, Ara h 2 (Arachis hypogaea allergen 2)
Assay: ELISA, scFv-Fc

Row | Binder | binding
37 | B34 | binds
38 | B35 | binds
39 | B36 | binds
